PubChem BioAssay AID743456 | Peter MacCallum Cancer Centre, 2014

Purpose: 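Identify miRNAs tied to vorinostat resistance or sensitivity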 (primary screen)
Cell system: human HCT116-VR colon cancer cells, a vorinostat-resistant HCT116 line
Reagents: miRNA mimic
Timing: about 3 days from transfection to readout; drug present for the last 24 h
Treatment: vorinostat at 2.5 µM final for 24 h
Read-out: 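Cell viability from CellTiter-Fluor signal and caspase activity from luminescence after 24 h vorinostat at 2.5 µM, given as robust z-scores and as ratios to mock-transfected wells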
Scale: viability robust z-score: higher = more viable cells; caspase robust z-score: higher = more caspase activity, more apoptosis
Rule for the call: 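Active when viability drops or caspase activity climbs beyond robust z thresholds, with wells of poor cell health excluded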
The whole screen tested 878 reagents; shown is a random part of them. In the full data, 27 (3.1%) were called active. 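27 mimics are marked active, unlike an earlier stated count of 24; the viability threshold is described inconsistently.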 Entries without a mark were called inactive. Not all columns of the deposit are shown. Not given: the amount of reagent.

With hsa-miR-488*, the values are viability robust z-score 0.72; caspase robust z-score -0.67; viability hit class no change; caspase hit class no change.
hsa-miR-886-3p scored viability robust z-score -1.36; caspase robust z-score 1.85; viability hit class no change; caspase hit class no change.
With hsa-miR-1911 the deposit lists viability robust z-score 0.18; caspase robust z-score -0.58; viability hit class no change; caspase hit class no change.
hsa-miR-365* scored viability robust z-score 0.82; caspase robust z-score 1.35; viability hit class no change; caspase hit class no change.
With hsa-miR-301b, the entry reads viability robust z-score 0.56; caspase robust z-score 0.16; viability hit class no change; caspase hit class no change.
hsa-miR-106a* gave viability robust z-score 0.1; caspase robust z-score -0.69; viability hit class no change; caspase hit class no change.
With hsa-miR-2053 the deposit lists viability robust z-score 0.36; caspase robust z-score 0.12; viability hit class no change; caspase hit class no change.
For hsa-miR-499-5p, the values are viability robust z-score 0.21; caspase robust z-score 0.24; viability hit class no change; caspase hit class no change.
hsa-miR-203 gave viability robust z-score 0.36; caspase robust z-score -0.74; viability hit class no change; caspase hit class no change.
hsa-miR-647 gave viability robust z-score -0.4; caspase robust z-score -0.23; viability hit class no change; caspase hit class no change.
For hsa-miR-618 the deposit lists viability robust z-score -0.72; caspase robust z-score 0.14; viability hit class no change; caspase hit class no change.
With hsa-miR-216b the deposit lists viability robust z-score 1.18; caspase robust z-score -0.24; viability hit class no change; caspase hit class no change.
